The source of these data is paper PMC11894219.

The chains behind the UniProt entries cited, without tags or fusion partners.
UniProt P54132: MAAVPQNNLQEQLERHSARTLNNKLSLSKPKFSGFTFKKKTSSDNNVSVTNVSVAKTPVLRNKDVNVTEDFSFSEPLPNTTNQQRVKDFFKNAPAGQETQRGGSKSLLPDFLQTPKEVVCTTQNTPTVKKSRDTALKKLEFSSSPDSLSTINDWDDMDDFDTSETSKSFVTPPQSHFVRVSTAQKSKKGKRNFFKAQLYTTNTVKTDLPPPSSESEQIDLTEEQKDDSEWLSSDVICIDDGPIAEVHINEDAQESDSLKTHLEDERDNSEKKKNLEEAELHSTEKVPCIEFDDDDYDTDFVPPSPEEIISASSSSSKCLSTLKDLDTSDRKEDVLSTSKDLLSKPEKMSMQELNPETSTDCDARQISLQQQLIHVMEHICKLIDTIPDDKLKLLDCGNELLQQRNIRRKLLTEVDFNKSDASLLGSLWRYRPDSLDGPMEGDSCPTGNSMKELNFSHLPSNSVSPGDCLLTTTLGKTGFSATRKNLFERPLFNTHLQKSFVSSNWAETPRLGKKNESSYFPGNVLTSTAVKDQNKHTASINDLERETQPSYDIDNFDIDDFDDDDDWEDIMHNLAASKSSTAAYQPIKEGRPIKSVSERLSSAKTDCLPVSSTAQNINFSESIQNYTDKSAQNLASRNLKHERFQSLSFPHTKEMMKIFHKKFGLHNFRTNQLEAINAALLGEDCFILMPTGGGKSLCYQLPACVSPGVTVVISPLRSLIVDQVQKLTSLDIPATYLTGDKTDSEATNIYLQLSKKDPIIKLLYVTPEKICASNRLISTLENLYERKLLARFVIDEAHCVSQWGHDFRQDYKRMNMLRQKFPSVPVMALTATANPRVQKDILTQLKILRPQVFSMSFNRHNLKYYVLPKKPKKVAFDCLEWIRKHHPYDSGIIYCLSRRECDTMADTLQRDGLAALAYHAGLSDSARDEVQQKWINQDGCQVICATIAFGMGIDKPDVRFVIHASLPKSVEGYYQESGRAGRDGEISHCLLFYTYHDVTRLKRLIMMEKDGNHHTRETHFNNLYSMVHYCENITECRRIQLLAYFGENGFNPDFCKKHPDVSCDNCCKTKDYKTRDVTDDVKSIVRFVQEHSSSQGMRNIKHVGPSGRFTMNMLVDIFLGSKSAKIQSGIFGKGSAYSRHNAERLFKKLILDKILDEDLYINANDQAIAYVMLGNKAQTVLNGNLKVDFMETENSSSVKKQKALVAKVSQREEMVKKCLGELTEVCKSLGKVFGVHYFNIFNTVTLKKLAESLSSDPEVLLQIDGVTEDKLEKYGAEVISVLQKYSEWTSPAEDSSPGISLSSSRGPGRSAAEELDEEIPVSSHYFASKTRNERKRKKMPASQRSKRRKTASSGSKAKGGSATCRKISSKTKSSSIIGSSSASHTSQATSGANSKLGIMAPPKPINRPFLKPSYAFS
UniProt Q8IY92: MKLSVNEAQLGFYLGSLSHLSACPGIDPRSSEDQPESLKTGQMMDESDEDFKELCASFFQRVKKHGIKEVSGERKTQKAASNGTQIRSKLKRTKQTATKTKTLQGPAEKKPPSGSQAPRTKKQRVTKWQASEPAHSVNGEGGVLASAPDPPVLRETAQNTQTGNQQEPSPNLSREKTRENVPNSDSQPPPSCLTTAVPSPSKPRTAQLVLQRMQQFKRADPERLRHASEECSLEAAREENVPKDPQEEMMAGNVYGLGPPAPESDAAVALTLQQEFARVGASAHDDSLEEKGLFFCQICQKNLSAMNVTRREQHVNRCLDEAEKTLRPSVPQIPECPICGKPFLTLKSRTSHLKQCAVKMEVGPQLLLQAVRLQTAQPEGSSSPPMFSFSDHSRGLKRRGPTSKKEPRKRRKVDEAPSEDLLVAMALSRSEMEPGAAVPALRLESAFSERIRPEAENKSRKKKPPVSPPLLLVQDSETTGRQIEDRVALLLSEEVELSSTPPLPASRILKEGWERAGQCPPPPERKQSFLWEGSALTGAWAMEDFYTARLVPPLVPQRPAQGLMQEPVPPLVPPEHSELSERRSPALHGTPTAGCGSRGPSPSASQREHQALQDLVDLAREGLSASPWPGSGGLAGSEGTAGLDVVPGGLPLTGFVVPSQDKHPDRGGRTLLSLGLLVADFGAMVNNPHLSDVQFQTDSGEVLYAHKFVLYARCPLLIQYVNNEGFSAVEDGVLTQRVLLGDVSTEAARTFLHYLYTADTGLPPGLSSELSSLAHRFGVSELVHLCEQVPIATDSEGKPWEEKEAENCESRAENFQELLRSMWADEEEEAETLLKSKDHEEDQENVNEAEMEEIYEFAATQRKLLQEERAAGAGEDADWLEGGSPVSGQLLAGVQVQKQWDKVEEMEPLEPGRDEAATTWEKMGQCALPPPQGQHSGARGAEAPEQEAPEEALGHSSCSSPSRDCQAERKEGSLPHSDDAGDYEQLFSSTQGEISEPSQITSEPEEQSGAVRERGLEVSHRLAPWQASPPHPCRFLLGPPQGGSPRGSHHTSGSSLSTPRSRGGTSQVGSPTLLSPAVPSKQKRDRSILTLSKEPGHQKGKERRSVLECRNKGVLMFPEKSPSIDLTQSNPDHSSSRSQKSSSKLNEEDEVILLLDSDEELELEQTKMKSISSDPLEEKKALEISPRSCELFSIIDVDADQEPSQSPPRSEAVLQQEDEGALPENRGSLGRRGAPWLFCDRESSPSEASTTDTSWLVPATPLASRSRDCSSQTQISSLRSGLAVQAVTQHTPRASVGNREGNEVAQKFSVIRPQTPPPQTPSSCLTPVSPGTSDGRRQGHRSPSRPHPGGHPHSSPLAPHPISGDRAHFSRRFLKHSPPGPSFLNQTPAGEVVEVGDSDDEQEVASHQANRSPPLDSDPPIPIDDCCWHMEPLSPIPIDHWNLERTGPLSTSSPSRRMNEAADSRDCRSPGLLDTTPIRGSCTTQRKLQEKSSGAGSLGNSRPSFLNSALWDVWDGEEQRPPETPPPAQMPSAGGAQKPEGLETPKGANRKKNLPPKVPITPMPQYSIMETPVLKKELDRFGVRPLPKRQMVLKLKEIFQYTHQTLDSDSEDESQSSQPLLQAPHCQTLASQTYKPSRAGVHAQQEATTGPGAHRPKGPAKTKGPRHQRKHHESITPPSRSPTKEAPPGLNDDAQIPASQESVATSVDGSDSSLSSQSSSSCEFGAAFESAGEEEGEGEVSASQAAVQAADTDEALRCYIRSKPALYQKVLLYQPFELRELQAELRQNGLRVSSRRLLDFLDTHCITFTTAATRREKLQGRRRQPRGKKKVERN
UniProt Q92878: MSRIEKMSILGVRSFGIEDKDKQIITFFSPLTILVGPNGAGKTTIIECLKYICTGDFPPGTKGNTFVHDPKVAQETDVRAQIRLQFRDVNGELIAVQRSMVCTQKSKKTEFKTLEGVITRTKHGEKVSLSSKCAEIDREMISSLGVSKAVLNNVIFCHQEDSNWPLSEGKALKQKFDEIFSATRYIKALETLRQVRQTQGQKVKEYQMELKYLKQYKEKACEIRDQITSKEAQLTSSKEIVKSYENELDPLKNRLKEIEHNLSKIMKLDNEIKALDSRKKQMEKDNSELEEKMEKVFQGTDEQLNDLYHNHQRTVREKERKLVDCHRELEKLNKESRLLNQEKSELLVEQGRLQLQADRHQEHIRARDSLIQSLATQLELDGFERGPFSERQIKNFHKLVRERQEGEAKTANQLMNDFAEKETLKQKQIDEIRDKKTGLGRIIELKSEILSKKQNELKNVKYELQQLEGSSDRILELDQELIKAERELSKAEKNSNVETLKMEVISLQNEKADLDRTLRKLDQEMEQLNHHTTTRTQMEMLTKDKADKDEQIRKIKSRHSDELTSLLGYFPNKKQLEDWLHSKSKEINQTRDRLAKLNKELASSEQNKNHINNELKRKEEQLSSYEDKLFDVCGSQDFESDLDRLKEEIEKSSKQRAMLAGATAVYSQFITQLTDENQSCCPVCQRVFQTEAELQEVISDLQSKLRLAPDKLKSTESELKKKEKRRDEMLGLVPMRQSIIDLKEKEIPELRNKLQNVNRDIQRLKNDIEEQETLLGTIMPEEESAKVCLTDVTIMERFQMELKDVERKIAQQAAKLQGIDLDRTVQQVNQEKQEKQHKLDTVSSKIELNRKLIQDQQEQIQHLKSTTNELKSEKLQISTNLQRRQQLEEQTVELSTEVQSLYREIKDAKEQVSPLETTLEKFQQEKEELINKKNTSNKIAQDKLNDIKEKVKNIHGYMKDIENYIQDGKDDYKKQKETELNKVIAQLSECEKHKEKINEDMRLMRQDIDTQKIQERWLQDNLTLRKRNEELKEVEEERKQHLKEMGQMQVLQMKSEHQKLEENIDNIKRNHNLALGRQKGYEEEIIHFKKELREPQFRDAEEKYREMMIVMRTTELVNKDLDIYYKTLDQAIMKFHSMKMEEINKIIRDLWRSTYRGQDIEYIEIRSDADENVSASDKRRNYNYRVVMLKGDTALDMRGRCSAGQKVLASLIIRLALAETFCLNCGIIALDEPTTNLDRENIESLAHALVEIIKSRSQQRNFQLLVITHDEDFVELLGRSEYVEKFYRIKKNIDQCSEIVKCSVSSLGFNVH

Test [1] deals with T1, FLAG-BirA*-RAD54L2 (human) (UniProt Q9Y4B4).
T1 sequence: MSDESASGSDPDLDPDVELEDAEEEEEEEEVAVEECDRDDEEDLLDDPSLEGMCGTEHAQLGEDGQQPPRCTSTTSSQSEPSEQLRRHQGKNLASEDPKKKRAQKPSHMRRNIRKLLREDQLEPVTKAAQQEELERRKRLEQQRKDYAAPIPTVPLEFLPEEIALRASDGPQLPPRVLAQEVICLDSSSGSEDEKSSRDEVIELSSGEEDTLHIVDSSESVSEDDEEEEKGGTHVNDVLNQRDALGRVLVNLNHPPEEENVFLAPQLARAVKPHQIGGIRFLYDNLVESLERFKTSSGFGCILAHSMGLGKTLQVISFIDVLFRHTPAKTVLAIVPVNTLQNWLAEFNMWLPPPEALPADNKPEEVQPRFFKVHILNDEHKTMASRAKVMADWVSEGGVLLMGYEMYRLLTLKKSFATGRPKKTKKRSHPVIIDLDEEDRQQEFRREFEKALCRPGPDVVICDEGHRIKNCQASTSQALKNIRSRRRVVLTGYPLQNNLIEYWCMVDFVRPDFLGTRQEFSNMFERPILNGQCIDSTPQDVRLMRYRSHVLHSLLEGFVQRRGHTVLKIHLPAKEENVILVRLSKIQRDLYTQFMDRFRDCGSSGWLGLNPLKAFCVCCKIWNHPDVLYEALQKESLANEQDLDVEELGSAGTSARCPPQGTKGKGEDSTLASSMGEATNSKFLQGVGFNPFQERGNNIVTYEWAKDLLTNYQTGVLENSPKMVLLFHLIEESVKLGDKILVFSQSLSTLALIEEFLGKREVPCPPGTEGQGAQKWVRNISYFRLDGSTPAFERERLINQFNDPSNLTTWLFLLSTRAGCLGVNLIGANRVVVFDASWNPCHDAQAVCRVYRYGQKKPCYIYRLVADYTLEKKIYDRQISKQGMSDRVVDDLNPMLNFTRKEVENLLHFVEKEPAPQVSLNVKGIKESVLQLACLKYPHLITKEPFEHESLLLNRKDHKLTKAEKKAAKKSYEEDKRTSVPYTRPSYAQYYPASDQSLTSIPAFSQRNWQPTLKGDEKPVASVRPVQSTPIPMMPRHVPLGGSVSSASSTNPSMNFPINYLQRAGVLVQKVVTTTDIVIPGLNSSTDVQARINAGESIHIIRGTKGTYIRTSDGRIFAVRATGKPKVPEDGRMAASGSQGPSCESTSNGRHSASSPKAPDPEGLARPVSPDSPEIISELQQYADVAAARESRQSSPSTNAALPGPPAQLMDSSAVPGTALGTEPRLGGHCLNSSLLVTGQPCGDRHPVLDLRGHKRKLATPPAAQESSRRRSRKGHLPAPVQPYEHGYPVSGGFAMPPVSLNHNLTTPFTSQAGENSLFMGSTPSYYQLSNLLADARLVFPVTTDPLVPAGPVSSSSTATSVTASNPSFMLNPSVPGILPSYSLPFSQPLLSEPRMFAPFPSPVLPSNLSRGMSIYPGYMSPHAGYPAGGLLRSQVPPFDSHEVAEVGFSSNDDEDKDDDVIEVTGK
Description: proximity labelling; BioID with BirA*-RAD54L2 in HEK293; doxycycline and 50 uM biotin for 24 h; streptavidin-sepharose, mass spectrometry; BFDR <=0.01.

Test [2] concerns the target BLM fused to a biotin ligase (at least one of the BLM fusions BirA*-BLM, mT-BLM, BLM-mT; which one is not told) (human) (UniProt P54132). Description: proximity labelling; the three BLM BioID screens combined (BirA*-BLM, mT-BLM, BLM-mT); prey found with at least one BLM fusion; mass spectrometry, BFDR <=0.01.
Test [3] deals with FLAG-miniTurbo-BLM (human) (UniProt P54132). Description: proximity labelling; miniTurbo fusions of BLM in HEK293; doxycycline, 50 uM biotin for 30 min; RIPA lysis, streptavidin-sepharose, mass spectrometry; SAINTexpress BFDR <=0.01.
A further test deals with FLAG-BirA*-BLM (human) (UniProt P54132). As to the kind of experiment: proximity labelling; BioID with N-terminal BirA* fusions of BLM, TOP3A, RMI1 or RMI2 in HEK293; doxycycline and 50 uM biotin for 24 h; RIPA lysis, streptavidin-sepharose, mass spectrometry; SAINTexpress BFDR <=0.01.
The target of test [4] is FLAG-miniTurbo-BLM (human) (UniProt P54132). As to the kind of experiment: proximity labelling; extracts of cells with or without doxycycline induction, streptavidin-agarose affinity purification of biotinylated proteins, immunoblot with anti-RAD54L2. In general terms: A western blot detects proteins with antibodies after separation by electrophoresis.

These are yes or no findings as the source states them, for the method shown. In cells and extracts the contact can be indirect. A yes stands for co-enrichment or nearness to the bait. Other partners may have been found. For some of these results: Tags and fused reporters may be left off the sequences shown.

Regarding BLM (from UniProt P54132 1-1417), the binding entry in test [1] was “binds”.

For SLX4 (from UniProt Q8IY92 1-1834), the binding result in test [2] and in test [1] was “binds” in each case.

With RAD50 (from UniProt Q92878 1-1312), the binding entry in test [2] and in test [1] was “binds” throughout.

B1: RAD54L2 (protein, UniProt Q9Y4B4 1-1467)
chain: T1 sequence
Regarding B1, the binding result (in test [3]; with FLAG-BirA*-BLM (human); in test [4]) was “binds” each time.

B2: RMI1 (protein, UniProt Q9H9A7 1-625)
chain: MNVTSIALRAETWLLAAWHVKVPPMWLEACINWIQEENNNVNLSQAQMNKQVFEQWLLTDLRDLEHPLLPDGILEIPKGELNGFYALQINSLVDVSQPAYSQIQKLRGKNTTNDLVTAEAQVTPKPWEAKPSRMLMLQLTDGIVQIQGMEYQPIPILHSDLPPGTKILIYGNISFRLGVLLLKPENVKVLGGEVDALLEEYAQEKVLARLIGEPDLVVSVIPNNSNENIPRVTDVLDPALGPSDEELLASLDENDELTANNDTSSERCFTTGSSSNTIPTRQSSFEPEFVISPRPKEEPSNLSIHVMDGELDDFSLEEALLLEETVQKEQMETKELQPLTFNRNADRSIERFSHNPNTTNNFSLTCKNGNNNWSEKNVSEQMTNEDKSFGCPSVRDQNRSIFSVHCNVPLAHDFTNKEKNLETDNKIKQTSSSDSHSLNNKILNREVVNYVQKRNSQISNENDCNLQSCSLRSSENSINLSIAMDLYSPPFVYLSVLMASKPKEVTTVKVKAFIVTLTGNLSSSGGIWSITAKVSDGTAYLDVDFVDEILTSLIGFSVPEMKQSKKDPLQYQKFLEGLQKCQRDLIDLCCLMTISFNPSLSKAMVLALQDVNMEHLENLKKRLNK
For B2, in test [1], the binding entry is “binds”.

B3: TOP3A (protein, UniProt Q13472 1-1001)
chain: MIFPVARYALRWLRRPEDRAFSRAAMEMALRGVRKVLCVAEKNDAAKGIADLLSNGRMRRREGLSKFNKIYEFDYHLYGQNVTMVMTSVSGHLLAHDFQMQFRKWQSCNPLVLFEAEIEKYCPENFVDIKKTLERETRQCQALVIWTDCDREGENIGFEIIHVCKAVKPNLQVLRARFSEITPHAVRTACENLTEPDQRVSDAVDVRQELDLRIGAAFTRFQTLRLQRIFPEVLAEQLISYGSCQFPTLGFVVERFKAIQAFVPEIFHRIKVTHDHKDGIVEFNWKRHRLFNHTACLVLYQLCVEDPMATVVEVRSKPKSKWRPQALDTVELEKLASRKLRINAKETMRIAEKLYTQGYISYPRTETNIFPRDLNLTVLVEQQTPDPRWGAFAQSILERGGPTPRNGNKSDQAHPPIHPTKYTNNLQGDEQRLYEFIVRHFLACCSQDAQGQETTVEIDIAQERFVAHGLMILARNYLDVYPYDHWSDKILPVYEQGSHFQPSTVEMVDGETSPPKLLTEADLIALMEKHGIGTDATHAEHIETIKARMYVGLTPDKRFLPGHLGMGLVEGYDSMGYEMSKPDLRAELEADLKLICDGKKDKFVVLRQQVQKYKQVFIEAVAKAKKLDEALAQYFGNGTELAQQEDIYPAMPEPIRKCPQCNKDMVLKTKKNGGFYLSCMGFPECRSAVWLPDSVLEASRDSSVCPVCQPHPVYRLKLKFKRGSLPPTMPLEFVCCIGGCDDTLREILDLRFSGGPPRASQPSGRLQANQSLNRMDNSQHPQPADSRQTGSSKALAQTLPPPTAAGESNSVTCNCGQEAVLLTVRKEGPNRGRQFFKCNGGSCNFFLWADSPNPGAGGPPALAYRPLGASLGCPPGPGIHLGGFGNPGDGSGSGTSCLCSQPSVTRTVQKDGPNKGRQFHTCAKPREQQCGFFQWVDENTAPGTSGAPSWTGDRGRTLESEARSKRPRASSSDMGSTAKKPRKCSLCHQPGHTRPFCPQNR
As for B3, the binding result in test [1] was “binds”.
